Data reported in the supplement of paper PMC11732987, “Enantioselective OTUD7B fragment discovery through chemoproteomics screening and high-throughput optimisation” (Communications Chemistry, 2025).
Some of the results follow. The data scatter; read single values as rough.

Sequences of proteins named here, by UniProt entry; tags and fusion partners are left off. A change or cut given only in a name is not applied to a line headed by its entry. Residues count along the entry.
UniProt Q52LR7, 413-432: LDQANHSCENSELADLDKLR
UniProt Q96AY2: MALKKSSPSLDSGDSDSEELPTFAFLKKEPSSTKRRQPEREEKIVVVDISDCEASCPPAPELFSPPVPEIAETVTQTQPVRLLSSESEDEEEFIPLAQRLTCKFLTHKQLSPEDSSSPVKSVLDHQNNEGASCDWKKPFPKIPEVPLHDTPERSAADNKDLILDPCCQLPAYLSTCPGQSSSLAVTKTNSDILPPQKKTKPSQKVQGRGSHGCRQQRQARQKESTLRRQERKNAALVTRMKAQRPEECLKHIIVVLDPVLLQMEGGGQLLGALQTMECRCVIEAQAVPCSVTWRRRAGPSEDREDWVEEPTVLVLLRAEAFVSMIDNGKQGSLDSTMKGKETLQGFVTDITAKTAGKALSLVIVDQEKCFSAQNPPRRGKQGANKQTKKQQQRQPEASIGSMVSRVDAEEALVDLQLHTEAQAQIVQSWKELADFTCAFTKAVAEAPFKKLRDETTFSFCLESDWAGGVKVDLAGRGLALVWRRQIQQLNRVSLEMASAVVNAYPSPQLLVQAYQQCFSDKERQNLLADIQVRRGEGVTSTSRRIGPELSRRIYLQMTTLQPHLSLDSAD
UniProt Q96GK7: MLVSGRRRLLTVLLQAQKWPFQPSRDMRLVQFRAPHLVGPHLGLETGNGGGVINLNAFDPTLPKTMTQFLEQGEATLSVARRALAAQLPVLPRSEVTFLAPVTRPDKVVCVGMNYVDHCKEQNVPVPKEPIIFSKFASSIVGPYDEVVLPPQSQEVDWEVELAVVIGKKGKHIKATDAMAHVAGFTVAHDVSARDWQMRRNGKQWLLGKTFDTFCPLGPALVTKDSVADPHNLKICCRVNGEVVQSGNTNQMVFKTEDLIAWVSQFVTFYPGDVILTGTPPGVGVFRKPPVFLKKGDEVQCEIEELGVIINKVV
UniProt P29320: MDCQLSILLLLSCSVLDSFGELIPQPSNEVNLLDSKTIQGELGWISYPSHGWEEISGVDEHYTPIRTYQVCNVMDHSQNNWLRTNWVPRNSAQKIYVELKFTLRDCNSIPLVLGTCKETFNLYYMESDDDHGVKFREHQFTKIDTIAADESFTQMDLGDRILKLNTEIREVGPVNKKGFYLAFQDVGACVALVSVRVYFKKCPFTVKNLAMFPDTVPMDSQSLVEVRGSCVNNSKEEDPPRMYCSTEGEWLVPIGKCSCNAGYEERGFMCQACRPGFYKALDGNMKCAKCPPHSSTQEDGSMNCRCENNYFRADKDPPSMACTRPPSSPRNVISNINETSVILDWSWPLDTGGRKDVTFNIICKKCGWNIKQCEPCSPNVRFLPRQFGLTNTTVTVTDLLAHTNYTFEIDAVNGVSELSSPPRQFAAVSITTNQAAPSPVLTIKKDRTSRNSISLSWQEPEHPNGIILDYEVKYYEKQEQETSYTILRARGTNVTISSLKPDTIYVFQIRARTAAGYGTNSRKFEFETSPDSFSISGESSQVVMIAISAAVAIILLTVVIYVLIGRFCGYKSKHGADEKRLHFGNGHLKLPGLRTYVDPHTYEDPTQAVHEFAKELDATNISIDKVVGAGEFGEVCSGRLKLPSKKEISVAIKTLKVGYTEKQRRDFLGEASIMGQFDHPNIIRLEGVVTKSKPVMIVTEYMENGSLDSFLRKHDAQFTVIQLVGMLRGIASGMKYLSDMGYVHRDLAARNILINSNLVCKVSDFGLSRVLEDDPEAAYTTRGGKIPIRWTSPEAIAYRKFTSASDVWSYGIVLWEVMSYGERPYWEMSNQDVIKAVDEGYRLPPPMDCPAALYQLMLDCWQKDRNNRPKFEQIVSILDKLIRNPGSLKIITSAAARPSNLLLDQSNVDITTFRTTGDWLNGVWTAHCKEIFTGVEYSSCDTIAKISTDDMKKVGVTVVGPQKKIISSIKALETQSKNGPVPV
UniProt Q9UBU6: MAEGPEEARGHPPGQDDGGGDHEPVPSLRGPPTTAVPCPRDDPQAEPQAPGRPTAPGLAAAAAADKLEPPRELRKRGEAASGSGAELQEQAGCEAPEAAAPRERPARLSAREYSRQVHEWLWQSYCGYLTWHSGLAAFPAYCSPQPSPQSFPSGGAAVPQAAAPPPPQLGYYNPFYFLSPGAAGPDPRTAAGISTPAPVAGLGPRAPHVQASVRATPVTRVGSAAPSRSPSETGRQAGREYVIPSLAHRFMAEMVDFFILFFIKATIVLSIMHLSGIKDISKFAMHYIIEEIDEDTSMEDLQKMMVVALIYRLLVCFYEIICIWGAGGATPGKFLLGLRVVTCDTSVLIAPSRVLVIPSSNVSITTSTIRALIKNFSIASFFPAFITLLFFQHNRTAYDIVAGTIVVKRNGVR
UniProt Q96EK7: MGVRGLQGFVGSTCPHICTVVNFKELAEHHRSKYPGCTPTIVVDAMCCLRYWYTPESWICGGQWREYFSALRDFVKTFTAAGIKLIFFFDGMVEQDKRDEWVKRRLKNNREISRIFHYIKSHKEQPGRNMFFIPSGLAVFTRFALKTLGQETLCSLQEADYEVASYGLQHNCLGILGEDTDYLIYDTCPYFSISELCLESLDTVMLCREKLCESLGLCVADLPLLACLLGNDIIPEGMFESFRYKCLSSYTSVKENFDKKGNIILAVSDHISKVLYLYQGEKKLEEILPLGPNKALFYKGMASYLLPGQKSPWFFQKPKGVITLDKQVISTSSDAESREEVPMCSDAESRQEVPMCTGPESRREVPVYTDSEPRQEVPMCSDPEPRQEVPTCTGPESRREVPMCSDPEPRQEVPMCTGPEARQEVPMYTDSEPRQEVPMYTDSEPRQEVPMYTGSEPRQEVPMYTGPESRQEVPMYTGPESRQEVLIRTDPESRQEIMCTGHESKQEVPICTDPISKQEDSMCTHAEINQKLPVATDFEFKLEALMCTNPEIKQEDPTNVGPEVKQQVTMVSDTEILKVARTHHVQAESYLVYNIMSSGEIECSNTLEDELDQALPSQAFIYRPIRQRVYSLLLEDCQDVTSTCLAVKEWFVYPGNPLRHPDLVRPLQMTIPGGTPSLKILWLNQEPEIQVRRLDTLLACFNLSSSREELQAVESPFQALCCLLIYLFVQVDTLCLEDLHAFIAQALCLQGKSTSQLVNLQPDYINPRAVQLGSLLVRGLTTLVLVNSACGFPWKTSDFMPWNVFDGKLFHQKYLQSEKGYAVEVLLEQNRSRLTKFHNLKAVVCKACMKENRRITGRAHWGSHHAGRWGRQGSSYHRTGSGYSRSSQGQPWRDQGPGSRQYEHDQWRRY
UniProt Q9H6T0: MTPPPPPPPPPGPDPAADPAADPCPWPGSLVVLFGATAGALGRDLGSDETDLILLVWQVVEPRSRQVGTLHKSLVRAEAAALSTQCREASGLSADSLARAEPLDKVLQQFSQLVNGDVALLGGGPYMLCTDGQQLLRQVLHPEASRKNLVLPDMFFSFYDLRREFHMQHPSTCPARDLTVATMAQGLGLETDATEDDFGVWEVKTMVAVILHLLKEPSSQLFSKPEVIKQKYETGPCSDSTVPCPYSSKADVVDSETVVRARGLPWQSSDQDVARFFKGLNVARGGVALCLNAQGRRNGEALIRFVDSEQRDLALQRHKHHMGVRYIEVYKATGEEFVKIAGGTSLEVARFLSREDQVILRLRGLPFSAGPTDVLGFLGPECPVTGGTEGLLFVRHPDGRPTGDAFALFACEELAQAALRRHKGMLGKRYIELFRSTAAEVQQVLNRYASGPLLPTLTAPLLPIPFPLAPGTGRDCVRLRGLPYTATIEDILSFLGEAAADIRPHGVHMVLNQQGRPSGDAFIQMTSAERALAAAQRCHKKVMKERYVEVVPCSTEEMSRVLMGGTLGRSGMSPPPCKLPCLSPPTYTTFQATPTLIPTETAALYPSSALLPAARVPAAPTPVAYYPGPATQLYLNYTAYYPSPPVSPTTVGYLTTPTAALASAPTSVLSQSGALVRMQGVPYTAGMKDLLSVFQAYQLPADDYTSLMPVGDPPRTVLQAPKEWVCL
UniProt Q01780: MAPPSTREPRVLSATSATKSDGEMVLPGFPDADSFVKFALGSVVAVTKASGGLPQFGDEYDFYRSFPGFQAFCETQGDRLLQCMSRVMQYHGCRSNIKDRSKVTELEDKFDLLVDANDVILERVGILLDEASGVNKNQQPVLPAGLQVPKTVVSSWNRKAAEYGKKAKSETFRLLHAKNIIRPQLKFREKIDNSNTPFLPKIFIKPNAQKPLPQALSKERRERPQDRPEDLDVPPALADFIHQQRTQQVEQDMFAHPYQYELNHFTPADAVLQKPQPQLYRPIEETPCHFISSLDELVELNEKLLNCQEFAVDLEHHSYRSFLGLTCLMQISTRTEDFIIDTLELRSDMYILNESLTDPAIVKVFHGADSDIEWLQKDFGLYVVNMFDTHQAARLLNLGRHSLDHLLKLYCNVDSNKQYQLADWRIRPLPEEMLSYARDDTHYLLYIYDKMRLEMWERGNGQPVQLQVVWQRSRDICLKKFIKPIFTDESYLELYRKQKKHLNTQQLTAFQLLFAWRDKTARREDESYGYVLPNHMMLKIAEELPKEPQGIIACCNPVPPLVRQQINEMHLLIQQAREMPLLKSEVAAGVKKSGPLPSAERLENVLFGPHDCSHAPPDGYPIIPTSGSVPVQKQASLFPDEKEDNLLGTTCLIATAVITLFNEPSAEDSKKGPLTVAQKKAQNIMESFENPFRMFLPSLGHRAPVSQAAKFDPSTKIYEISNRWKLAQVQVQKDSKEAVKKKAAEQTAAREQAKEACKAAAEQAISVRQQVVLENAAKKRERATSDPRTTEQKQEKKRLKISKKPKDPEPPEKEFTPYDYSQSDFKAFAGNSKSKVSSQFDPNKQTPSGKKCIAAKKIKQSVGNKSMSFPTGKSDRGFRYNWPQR
UniProt P50402, 119-150: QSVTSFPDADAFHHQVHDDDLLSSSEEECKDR
UniProt Q9NW38: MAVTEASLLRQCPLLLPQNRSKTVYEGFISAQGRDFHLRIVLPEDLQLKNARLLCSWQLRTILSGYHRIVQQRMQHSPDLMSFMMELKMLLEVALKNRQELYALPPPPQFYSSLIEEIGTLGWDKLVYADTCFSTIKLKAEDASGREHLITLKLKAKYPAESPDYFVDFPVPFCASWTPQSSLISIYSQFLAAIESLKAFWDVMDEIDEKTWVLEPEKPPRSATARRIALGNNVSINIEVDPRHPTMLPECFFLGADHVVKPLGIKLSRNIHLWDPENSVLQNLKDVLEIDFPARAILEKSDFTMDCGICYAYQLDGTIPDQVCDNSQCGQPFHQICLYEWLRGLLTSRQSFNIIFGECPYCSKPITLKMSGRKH
UniProt Q9NVI1: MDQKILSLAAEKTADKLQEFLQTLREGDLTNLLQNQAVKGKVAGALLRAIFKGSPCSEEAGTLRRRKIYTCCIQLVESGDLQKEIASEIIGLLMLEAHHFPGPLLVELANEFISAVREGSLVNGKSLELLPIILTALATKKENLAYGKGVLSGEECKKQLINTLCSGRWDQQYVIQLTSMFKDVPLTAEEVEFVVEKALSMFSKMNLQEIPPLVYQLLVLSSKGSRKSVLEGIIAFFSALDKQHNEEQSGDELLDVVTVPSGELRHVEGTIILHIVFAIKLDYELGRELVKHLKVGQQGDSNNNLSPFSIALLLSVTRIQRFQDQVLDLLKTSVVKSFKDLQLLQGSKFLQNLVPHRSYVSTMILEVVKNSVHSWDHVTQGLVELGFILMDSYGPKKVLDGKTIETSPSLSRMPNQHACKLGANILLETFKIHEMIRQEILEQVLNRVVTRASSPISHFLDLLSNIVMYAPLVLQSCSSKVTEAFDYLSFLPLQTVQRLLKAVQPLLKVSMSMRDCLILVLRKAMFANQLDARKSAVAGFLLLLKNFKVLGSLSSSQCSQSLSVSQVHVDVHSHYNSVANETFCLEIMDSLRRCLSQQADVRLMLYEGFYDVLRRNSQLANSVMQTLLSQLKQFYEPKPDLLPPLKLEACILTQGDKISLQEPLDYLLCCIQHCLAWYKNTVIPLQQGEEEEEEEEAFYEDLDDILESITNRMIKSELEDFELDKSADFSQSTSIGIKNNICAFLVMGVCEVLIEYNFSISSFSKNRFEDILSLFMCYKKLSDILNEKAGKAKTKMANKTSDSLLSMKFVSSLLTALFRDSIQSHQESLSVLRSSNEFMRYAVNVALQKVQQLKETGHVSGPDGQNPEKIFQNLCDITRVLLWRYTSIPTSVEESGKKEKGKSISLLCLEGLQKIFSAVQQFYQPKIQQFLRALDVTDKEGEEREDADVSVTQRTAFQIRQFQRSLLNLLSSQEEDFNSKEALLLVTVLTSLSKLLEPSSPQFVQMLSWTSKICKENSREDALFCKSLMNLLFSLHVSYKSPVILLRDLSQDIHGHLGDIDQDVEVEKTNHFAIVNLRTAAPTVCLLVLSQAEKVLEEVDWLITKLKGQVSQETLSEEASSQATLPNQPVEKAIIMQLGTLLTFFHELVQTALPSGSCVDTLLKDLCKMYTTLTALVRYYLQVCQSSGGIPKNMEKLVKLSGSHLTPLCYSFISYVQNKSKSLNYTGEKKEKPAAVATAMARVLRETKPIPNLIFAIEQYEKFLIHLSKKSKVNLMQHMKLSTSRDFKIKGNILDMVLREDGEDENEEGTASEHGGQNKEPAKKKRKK

The targets below were run with ClCC(=O)N[C@H]1CCCc2ccccc12 (assay: log2 mean competition ratio of IA-DTB cysteine labelling (DMSO/compound) (log2 ratio); higher = stronger cysteine engagement by compound). Details: 50 µM; treatment time: 4 h; cell line lysate: HEK293T.
Experimental: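 IA-DTB competitive cysteine chemoproteomics in HEK293T RIPA lysate. Lysates were treated with compound 29 or 30 at 50 or 200 µM for 4 h, then IA-DTB (500 µM, 1 h), trypsin-digested, NeutrAvidin-enriched and analysed by diaPASEF. Competition ratio = intensity DMSO / intensity compound (n=4 treated, n=64 DMSO); binding: mean log2 CR ≥ 1 and p ≤ 0.05 plus QC filters. Target is the cysteine site.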
In the case of EPC2 C420 (UniProt Q52LR7), the “log2 mean competition ratio” value was -0.582. In the case of EXOC4 C619 (UniProt Q96A65), the “log2 mean competition ratio” value was 0.0709. With EME1 C248 (UniProt Q96AY2) the “log2 mean competition ratio” value was -0.0118. For FAHD2A C301 (UniProt Q96GK7), the “log2 mean competition ratio” value was -0.447. With ETF1 C335 (UniProt P62495) the “log2 mean competition ratio” value was -0.152. EPHA3 C760 (UniProt P29320) was tested, and the “log2 mean competition ratio” value was -0.113. With EXOC2 C586 (UniProt Q96KP1) the “log2 mean competition ratio” value was -0.177. With FAN1 C649 the “log2 mean competition ratio” value was -0.52. For FAM8A1 C38 (UniProt Q9UBU6), the “log2 mean competition ratio” value was 0.137. ELOA C610 (UniProt Q14241) was tested, and the “log2 mean competition ratio” value was 0.0971. With ESPL1 C1345 (UniProt Q14674) the “log2 mean competition ratio” value was -0.158. In the case of ENO1 C357, the “log2 mean competition ratio” value was -0.212. In the case of FAM120B C499 (UniProt Q96EK7), the “log2 mean competition ratio” value was 0.00763. With ESRP2 C86 (UniProt Q9H6T0) the “log2 mean competition ratio” value was 0.15. EXOSC10 C73 (UniProt Q01780) was tested, and the “log2 mean competition ratio” value was 0.466. In the case of ELMO1 C561 (UniProt Q92556), the “log2 mean competition ratio” value was 0.318. With EMD C147 (UniProt P50402) the “log2 mean competition ratio” value was 0.224. In the case of ESPNL C523, the “log2 mean competition ratio” value was -0.0251. With FANCL C12 (UniProt Q9NW38) the “log2 mean competition ratio” value was -0.107. FANCI C650 (UniProt Q9NVI1) was tested, and the “log2 mean competition ratio” value was -0.183.

Same assay, conditions: 200 µM; treatment time: 4 h; cell line lysate: HEK293T
EPC2 C420 (UniProt Q52LR7) was tested, and the “log2 mean competition ratio” value was 0.194. EXOC4 C619 (UniProt Q96A65) was tested, and the “log2 mean competition ratio” value was -0.126. For EME1 C248 (UniProt Q96AY2), the “log2 mean competition ratio” value was -0.0295. In the case of FAHD2A C301 (UniProt Q96GK7), the “log2 mean competition ratio” value was -0.0216. ETF1 C335 (UniProt P62495) was tested, and the “log2 mean competition ratio” value was -0.441. For EPHA3 C760 (UniProt P29320), the “log2 mean competition ratio” value was 0.283. EXOC2 C586 (UniProt Q96KP1) was tested, and the “log2 mean competition ratio” value was -0.153. In the case of FAN1 C649, the “log2 mean competition ratio” value was 0.303. In the case of FAM8A1 C38 (UniProt Q9UBU6), the “log2 mean competition ratio” value was -0.149. With ELOA C610 (UniProt Q14241) the “log2 mean competition ratio” value was -0.37. With ESPL1 C1345 (UniProt Q14674) the “log2 mean competition ratio” value was -0.218. With ENO1 C357 the “log2 mean competition ratio” value was 0.0969. With FAM120B C499 (UniProt Q96EK7) the “log2 mean competition ratio” value was 0.0977. With ESRP2 C86 (UniProt Q9H6T0) the “log2 mean competition ratio” value was -0.0642. With EXOSC10 C73 (UniProt Q01780) the “log2 mean competition ratio” value was -0.0793. With ELMO1 C561 (UniProt Q92556) the “log2 mean competition ratio” value was 0.228. EMD C147 (UniProt P50402) was tested, and the “log2 mean competition ratio” value was -0.047. For ESPNL C523, the “log2 mean competition ratio” value was 0.179. With FANCL C12 (UniProt Q9NW38) the “log2 mean competition ratio” value was 0.519. FANCI C650 (UniProt Q9NVI1) was tested, and the “log2 mean competition ratio” value was -0.16.
